Results from publication PMC11419264.
These are yes or no findings as the source states them, for the method shown. In cells and extracts the contact can be indirect. These calls come from enrichment with a bait or labelling near it, and not all partners need be listed. Tags and fused reporters may be left off the sequences shown.

The chains behind the UniProt entries cited, without tags or fusion partners. Residues count along the entry.
UniProt P40939, residues 37-763: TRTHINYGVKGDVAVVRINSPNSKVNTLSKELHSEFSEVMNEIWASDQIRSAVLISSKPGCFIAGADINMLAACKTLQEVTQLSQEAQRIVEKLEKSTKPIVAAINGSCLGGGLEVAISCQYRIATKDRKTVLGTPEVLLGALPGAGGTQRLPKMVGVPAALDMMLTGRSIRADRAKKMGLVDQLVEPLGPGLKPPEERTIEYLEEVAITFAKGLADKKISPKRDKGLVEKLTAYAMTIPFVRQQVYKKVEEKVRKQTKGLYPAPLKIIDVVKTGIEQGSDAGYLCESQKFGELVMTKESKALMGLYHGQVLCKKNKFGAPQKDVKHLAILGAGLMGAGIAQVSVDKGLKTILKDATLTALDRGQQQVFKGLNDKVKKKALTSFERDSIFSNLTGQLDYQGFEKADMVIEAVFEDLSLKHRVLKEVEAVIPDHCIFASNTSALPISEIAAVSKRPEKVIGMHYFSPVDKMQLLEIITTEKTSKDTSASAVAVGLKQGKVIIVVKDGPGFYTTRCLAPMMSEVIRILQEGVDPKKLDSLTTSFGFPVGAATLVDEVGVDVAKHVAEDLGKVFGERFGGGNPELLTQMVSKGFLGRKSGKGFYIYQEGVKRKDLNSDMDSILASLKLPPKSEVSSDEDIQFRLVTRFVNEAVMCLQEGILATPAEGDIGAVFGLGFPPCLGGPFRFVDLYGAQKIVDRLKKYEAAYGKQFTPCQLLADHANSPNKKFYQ

Biological target: T1, Human CALHM2 Myc-DDK-tagged (human) (UniProt Q9HA72)
T1 sequence: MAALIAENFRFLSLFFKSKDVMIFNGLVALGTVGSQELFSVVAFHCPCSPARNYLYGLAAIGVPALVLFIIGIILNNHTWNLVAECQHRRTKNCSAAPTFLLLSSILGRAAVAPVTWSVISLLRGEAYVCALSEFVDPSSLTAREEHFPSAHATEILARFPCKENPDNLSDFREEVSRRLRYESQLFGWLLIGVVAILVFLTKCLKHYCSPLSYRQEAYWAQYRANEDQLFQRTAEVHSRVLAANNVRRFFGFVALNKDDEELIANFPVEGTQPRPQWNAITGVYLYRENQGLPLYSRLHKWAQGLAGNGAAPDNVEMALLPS
Experiment: affinity purification with mass spectrometry; mitochondria from HEK 293T cells overexpressing CALHM2-Myc-DDK, solubilised with 1 mM N-dodecyl maltoside; anti-FLAG M2 affinity gel, elution with Myc-peptide, eluate analysed by LC-MS; another Myc-DDK-tagged protein (ATP synthase c-subunit) as negative control

binding	Substance
binds	HSP70 (human (endogenous in HEK 293T))
binds	ECHA, alpha subunit of the mitochondrial trifunctional protein (mTFP) (from UniProt P40939 37-763)
binds	HSP90 (human (endogenous in HEK 293T))
